Results as given in patent US10501428B2, “Thymoquinone derivatives for treatment of cancer” (United Arab Emirates University, priority 2014, dated 2019).
Some entries repeat one wording, which the source may state once for all of them.

System: G-quadruplex DNA
Assay: Fluorescence titration of TQs with G-quadruplex DNA (modified Scatchard)
Format: binding, human
Conditions: for number of binding sites N: modified Scatchard equation; for red shift in fluorescence titration: Tris-KCl buffer pH 7.4
Protocol: A 2 ml of the stock single stranded DNA; 5′-[…]-3′ (SEQ ID NO: 1) was gently heated up to 95° C., incubated for 10 minutes and then left to cool to room temperature. Resultant solution was kept in fridge at 4° C. overnight.
To 3 ml of 5×10^−5 M of each of compounds TQ1-8 in Tris-KCl-buffer, pH 7.4, successive portions of G-quadruplex DNA (1.44×10^−4 M) were added. After each addition, the TQ solution was stirred for 20 seconds, incubated for 3 min and its emission was scanned in the range 300-600 nm using excitation Amax of 280 nm and slit width of 10.00 nm. Titration stopped when no change in fluorescence intensity was observed.
Scatchard plots were used to determine the binding affinity of the thymoquinone derivative compounds to G-quadruplex based on fluorescence titration, keeping the compounds concentration constant and varying DNA amounts.
Dependant binding sites may have synergistic (the first bound ligand encourage the next binding one) or antagonistic (the first bound ligand suppress the next binding one) effects on each other, a phenomenon known as the neighbor exclusion effect. Non-linear regression based on a modified Scatchard equation gave the binding constants and number of binding sites shown in Table 3. Compound TQ8 has shown the highest binding constant (1.33×10^7 M^−1) and compound TQ5 has shown the lowest binding constant (7.76×10^4 M^−1)

[1] = titration with G-quadruplex DNA

Row | Compound | number of binding sites N | change in fluorescence intensity on titration [1] | red shift in fluorescence titration [1] [nm] | new peak appearing in fluorescence titration [1] [nm] | isosbestic point [1] [nm]
1 | CC1=C(NCCN2CCOCC2)C(=O)C(C(C)C)=CC1=O [TQ1, 5-Isopropyl-2-methyl-3-((2-morpholinoethyl)amino)-1,4-benzoquinone] | 2 | decrease in fluorescence intensity | 24 |  | 
2 | CC1=C(NCc2ccc(C(F)(F)F)cc2)C(=O)C(C(C)C)=CC1=O [TQ2, 5-Isopropyl-2-methyl-3-(4-trifluoromethylbenzylamino)-1,4-benzoquinone] | 1 | decrease in fluorescence intensity | 14 |  | 
3 | CC1=C(NCc2ccc(F)cc2)C(=O)C(C(C)C)=CC1=O [TQ3, 5-Isopropyl-2-methyl-3-(4-fluorobenzylamino)-1,4-benzoquinone] | 3 | hypochromicity | 4 | 353.7 | 
4 | CC1=C(NCc2ccccc2)C(=O)C(C(C)C)=CC1=O [TQ4, 5-Isopropyl-2-methyl-3-(benzylamino)-1,4-benzoquinone] | 3 | decrease in fluorescence intensity | 30 |  | 
5 | CC1=C(NCc2cc(C(F)(F)F)cc(C(F)(F)F)c2)C(=O)C(C(C)C)=CC1=O [TQ5, 5-Isopropyl-2-methyl-3-(3,5-ditrifluoromethylbenzylamino)-1,4-benzoquinone] | 1 | decrease in fluorescence intensity | 25 |  | 
6 | CC1=C(NCCO)C(=O)C(C(C)C)=CC1=O [TQ6, 5-isopropyl-2-methyl-3-(2-hydroxyethylamino)-1,4-benzoquinone] | 2 | hypochromicity | 4 | 350 | 315
7 | COc1ccc(CNC2=C(C)C(=O)C=C(C(C)C)C2=O)cc1OC [TQ7, 5-isopropyl-2-methyl-3-(3,4-dimethoxylbenzylamino)-1,4-benzoquinone] | 2 | decrease in fluorescence intensity | 41 |  | 
